Source: the supplement of paper PMC10849652
Some of the results follow.

By UniProt entry, the sequences of proteins in these tests, tags left out. Where a name states a change or a piece, a line headed by the entry shows the natural chain unless it says otherwise.
UniProt P25791: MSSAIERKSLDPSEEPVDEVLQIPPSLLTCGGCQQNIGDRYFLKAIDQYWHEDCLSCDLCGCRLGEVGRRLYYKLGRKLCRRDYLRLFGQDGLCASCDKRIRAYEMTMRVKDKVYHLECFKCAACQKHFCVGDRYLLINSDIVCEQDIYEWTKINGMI
UniProt Q9H6V9: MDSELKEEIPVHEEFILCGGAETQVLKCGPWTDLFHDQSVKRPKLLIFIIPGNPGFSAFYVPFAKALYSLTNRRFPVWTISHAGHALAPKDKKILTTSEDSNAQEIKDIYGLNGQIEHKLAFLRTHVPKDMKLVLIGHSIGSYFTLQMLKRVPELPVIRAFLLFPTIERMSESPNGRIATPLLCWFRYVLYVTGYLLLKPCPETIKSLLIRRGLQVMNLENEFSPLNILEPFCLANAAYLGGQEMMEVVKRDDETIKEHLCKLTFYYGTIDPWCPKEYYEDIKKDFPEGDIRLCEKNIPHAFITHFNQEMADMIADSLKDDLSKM
UniProt Q9NUP9: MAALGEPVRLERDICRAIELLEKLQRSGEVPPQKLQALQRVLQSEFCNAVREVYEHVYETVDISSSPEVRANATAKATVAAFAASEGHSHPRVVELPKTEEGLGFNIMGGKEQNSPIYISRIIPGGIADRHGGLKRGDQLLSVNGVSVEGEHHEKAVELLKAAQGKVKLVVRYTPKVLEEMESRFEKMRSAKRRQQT
UniProt Q7L1W4: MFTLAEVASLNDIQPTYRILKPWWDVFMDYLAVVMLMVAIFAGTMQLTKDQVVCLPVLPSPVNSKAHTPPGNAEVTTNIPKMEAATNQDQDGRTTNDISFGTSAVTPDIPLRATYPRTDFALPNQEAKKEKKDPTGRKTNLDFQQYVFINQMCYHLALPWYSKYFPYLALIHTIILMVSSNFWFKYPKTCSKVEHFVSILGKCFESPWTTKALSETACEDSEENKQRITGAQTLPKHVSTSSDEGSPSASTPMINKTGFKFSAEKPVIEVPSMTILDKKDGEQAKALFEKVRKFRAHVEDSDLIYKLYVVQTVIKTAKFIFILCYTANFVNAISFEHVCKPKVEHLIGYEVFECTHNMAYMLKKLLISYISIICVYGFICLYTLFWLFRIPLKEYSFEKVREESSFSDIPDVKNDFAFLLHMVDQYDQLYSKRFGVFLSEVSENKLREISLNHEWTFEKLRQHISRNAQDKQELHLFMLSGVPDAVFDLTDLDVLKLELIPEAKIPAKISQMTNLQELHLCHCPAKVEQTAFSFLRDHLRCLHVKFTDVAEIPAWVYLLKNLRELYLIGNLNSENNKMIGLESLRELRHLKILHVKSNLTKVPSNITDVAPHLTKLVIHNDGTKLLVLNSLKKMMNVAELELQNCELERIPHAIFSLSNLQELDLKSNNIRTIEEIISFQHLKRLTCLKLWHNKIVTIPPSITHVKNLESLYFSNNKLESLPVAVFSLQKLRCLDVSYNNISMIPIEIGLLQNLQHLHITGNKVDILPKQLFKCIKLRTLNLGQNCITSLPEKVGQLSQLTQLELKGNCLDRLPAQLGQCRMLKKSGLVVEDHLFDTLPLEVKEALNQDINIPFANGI
UniProt Q9UHB6: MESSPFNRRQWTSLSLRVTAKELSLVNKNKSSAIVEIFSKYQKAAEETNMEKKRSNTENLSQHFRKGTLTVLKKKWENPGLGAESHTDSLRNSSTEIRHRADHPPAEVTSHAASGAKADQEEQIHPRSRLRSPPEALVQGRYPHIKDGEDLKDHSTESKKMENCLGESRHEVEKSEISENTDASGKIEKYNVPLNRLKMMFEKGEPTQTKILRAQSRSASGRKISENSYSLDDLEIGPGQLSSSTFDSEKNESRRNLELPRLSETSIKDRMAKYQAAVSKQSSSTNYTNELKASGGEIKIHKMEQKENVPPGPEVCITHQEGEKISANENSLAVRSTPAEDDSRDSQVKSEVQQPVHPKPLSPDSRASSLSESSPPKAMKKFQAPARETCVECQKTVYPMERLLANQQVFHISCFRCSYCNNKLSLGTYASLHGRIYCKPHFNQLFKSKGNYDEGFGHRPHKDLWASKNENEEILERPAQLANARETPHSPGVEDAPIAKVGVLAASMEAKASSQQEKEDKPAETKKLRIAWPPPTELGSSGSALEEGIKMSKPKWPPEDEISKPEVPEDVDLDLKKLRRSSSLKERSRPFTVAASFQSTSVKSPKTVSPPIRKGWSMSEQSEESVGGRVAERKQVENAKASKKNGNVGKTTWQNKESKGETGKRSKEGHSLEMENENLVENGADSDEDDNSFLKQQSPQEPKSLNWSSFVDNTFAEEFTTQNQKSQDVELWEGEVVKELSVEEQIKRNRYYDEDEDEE
UniProt P20700: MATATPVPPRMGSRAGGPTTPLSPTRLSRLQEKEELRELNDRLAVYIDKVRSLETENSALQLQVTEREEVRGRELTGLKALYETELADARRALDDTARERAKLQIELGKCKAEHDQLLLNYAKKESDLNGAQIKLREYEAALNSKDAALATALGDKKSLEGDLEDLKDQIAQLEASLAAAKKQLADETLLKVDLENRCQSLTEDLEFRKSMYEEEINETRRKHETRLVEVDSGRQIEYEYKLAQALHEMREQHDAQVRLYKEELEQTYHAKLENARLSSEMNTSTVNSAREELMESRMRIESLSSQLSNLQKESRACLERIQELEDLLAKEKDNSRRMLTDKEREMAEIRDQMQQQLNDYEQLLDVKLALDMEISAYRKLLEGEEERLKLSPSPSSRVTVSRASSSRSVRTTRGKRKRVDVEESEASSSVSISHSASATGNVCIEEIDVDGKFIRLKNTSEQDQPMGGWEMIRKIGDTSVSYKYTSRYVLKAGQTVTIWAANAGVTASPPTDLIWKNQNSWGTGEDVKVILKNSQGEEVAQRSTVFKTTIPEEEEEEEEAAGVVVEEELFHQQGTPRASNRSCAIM
UniProt Q9Y333: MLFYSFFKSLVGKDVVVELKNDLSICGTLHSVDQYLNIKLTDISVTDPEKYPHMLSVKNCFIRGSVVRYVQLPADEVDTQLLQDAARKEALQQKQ
UniProt Q9C099: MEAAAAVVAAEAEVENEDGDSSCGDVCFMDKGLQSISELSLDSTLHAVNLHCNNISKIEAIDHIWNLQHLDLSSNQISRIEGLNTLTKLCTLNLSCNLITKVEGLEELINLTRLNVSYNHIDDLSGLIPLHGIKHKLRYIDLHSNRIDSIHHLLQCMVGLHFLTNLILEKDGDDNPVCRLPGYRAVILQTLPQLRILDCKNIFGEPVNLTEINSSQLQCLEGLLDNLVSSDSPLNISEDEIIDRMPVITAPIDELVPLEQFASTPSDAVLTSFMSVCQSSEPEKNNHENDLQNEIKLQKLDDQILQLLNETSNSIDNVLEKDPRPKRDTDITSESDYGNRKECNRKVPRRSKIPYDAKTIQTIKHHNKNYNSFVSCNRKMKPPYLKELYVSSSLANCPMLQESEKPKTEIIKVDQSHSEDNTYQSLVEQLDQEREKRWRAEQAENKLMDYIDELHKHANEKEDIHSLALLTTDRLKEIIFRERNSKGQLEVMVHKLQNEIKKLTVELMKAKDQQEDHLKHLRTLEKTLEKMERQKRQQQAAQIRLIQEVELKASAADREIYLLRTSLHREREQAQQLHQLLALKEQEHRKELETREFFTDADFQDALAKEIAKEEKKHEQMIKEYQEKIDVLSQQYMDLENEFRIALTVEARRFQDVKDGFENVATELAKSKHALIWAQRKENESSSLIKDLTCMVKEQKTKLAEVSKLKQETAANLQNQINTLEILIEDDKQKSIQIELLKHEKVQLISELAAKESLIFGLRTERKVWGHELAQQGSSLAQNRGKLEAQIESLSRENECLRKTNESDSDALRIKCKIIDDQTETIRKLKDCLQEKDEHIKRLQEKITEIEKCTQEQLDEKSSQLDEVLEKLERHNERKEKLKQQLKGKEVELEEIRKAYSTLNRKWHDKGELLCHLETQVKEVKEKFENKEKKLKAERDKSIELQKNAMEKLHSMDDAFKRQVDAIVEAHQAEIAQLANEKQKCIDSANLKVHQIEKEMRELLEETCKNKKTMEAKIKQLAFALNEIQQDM
UniProt Q96II8: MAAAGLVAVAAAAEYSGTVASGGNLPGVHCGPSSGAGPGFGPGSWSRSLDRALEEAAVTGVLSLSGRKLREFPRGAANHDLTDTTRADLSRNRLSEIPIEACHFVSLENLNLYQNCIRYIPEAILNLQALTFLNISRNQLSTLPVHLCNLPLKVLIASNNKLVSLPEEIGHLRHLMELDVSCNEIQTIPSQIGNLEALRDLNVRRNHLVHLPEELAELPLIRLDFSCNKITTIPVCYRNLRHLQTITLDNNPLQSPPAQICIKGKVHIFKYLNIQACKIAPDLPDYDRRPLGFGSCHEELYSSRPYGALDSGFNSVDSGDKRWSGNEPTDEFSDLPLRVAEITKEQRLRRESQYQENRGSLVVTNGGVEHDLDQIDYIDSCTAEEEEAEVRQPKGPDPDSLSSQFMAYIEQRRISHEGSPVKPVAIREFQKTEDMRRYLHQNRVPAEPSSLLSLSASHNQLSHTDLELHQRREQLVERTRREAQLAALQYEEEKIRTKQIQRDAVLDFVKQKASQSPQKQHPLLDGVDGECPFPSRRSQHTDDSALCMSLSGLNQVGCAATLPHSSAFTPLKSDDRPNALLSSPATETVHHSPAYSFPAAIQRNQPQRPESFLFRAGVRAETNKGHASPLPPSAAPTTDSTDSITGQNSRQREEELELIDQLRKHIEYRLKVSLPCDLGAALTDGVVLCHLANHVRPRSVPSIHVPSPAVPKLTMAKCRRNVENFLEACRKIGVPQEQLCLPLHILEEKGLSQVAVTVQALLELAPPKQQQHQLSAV
UniProt P49917: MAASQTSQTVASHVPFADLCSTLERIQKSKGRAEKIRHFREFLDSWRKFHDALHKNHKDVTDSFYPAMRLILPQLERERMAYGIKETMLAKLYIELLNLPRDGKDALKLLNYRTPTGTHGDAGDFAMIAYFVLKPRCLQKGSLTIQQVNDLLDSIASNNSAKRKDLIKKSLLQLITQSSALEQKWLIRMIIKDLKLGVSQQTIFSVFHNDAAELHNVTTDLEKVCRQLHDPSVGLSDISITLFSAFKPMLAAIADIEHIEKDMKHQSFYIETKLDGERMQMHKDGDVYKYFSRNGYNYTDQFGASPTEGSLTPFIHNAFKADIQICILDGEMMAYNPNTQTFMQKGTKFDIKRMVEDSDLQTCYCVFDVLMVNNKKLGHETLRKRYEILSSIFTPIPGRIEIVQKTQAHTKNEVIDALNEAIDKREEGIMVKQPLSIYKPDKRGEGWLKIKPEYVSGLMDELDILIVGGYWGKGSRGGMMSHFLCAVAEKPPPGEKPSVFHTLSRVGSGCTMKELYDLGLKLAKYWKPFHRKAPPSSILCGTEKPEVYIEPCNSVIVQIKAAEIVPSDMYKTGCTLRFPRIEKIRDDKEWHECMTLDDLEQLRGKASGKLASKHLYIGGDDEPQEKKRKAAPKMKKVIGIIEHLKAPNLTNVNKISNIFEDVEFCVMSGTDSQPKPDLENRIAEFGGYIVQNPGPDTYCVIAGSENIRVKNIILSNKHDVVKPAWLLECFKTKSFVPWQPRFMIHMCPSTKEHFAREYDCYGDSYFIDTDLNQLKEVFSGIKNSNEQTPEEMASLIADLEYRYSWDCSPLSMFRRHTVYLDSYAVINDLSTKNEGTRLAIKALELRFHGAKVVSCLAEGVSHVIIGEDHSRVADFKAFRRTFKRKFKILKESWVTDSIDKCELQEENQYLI
UniProt Q96AG4: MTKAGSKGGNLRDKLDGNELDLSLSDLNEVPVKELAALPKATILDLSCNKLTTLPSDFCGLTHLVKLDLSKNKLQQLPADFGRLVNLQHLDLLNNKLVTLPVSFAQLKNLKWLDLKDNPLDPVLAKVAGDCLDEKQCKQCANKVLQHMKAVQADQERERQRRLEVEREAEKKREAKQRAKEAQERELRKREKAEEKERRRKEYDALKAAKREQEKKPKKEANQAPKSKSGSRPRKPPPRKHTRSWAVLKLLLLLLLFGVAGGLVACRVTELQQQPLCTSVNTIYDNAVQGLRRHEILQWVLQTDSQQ
UniProt Q5TKA1: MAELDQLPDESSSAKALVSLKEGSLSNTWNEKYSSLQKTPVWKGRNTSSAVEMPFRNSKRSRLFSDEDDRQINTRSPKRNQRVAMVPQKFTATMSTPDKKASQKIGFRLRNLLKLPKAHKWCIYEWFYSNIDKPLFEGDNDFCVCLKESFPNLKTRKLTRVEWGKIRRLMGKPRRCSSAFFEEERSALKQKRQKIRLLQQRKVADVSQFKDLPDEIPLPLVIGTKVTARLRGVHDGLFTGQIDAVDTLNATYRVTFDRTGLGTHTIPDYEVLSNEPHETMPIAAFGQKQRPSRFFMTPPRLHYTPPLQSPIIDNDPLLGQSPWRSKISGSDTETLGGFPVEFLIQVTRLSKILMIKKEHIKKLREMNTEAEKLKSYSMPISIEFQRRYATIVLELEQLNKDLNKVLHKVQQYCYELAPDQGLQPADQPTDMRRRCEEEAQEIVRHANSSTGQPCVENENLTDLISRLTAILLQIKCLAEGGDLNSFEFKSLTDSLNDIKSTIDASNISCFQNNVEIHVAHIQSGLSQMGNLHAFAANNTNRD

Compound: NC1(c2ccc(-c3nc4ccn5c(=O)[nH]nc5c4cc3-c3ccccc3)cc2)CCC1
Assay: log2 fold change, soluble protein after heating vs DMSO (PISA); higher = thermal stabilisation; K562 lysate, 10 uM; active = over 0.2 and 3.5 SD of the protein, either way, in both replicates (recomputed)
How it was run: (§1)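 Dounce homogenisation of K562 pellets in PBS pH 7.4 with 1 mM MgCl2 produced a crude extract, used at 1 mg/mL protein. Exposure to 10 μM compound lasted 30 min, and aliquots were then heated for 3 min across 48°C-58°C, pooled and brought to 0.5% NP-40 at 4°C. The supernatant after 21,000xg for 90 min was quantified by TMTpro 16plex LC-MS/MS with channel sums equalised. Duplicate values are given as log-two fold change in thermal stability relative to solvent controls.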

Target | log2 fold change
LRPPRC (UniProt P42704) | inactive: 0.004
LETMD1 isoform 7 (UniProt Q6P1Q0) | inactive: 0.011
LARS2 (UniProt Q15031) | inactive: -0.036
LMNB2 (UniProt Q03252) | inactive: 0.015
LCLAT1 (UniProt Q6UWP7) | inactive: 0.027
LEO1 (UniProt Q8WVC0) | inactive: 0.001
LCMT2 (UniProt O60294) | inactive: -0.149
LRRC8B (UniProt Q6P9F7) | inactive: -0.048
LCMT1 (UniProt Q9UIC8) | inactive: 0.001
LRBA, A0A494BZW2 | inactive: -0.001
LMO2 isoform 3 (UniProt P25791) | inactive: 0.052
LRRC8C (UniProt Q8TDW0) | inactive: -0.032
LDAH isoform 2 (UniProt Q9H6V9) | active: 0.307
LMAN2L isoform 2 (UniProt Q9H0V9) | inactive: -0.006
LRCH4 (UniProt O75427) | inactive: 0.025
LCP2 (UniProt Q13094) | inactive: -0.014
LAS1L (UniProt Q9Y4W2) | inactive: -0.024
LRWD1 (UniProt Q9UFC0) | inactive: -0.033
LSM14B isoform 2 (UniProt Q9BX40) | inactive: 0.068
LGALS8 isoform 2 (UniProt O00214) | inactive: -0.022

Target | log2 fold change
LIMD1 (UniProt Q9UGP4) | inactive: 0.007
LDHA isoform 3 (UniProt P00338) | inactive: 0.008
LIN7C (UniProt Q9NUP9) | inactive: 0.022
LRRC8D (UniProt Q7L1W4) | inactive: 0.004
LIMA1 isoform 4 (UniProt Q9UHB6) | inactive: -0.008
LRRC57 (UniProt Q8N9N7) | inactive: 0.032
LMAN1 (UniProt P49257) | inactive: -0.013
LMNB1 (UniProt P20700) | inactive: 0.026
LSM2 (UniProt Q9Y333) | inactive: -0.005
LINS1 (UniProt Q8NG48) | inactive: 0.054
LIG1 (UniProt P18858) | inactive: 0
LMBRD1 (UniProt Q9NUN5) | inactive: -0.036
LRRCC1 (UniProt Q9C099) | inactive: -0.08
LRCH3 (UniProt Q96II8) | inactive: -0.025
LIG4 (UniProt P49917) | inactive: -0.005
LRRC59 (UniProt Q96AG4) | inactive: -0.014
LSR (UniProt Q86X29) | inactive: 0.004
LIN9 isoform 2 (UniProt Q5TKA1) | inactive: -0.025
LNPK (UniProt Q9C0E8) | inactive: 0.035

Compound: NCC(=O)Nc1ccc(-n2nc(C(F)(F)F)cc2-c2ccc3c(ccc4ccccc43)c2)cc1
Assay: as above
How it was run: as §1

Target | log2 fold change
LRPPRC (UniProt P42704) | inactive: -0.004
LETMD1 isoform 7 (UniProt Q6P1Q0) | inactive: -0.083
LARS2 (UniProt Q15031) | inactive: -0.062
LMNB2 (UniProt Q03252) | inactive: -0.023
LCLAT1 (UniProt Q6UWP7) | inactive: 0.001
LEO1 (UniProt Q8WVC0) | inactive: 0.009
LCMT2 (UniProt O60294) | inactive: 0.021
LRRC8B (UniProt Q6P9F7) | inactive: 0.09
LCMT1 (UniProt Q9UIC8) | inactive: -0.063
LRBA, A0A494BZW2 | inactive: 0.026
LMO2 isoform 3 (UniProt P25791) | inactive: -0.024
LRRC8C (UniProt Q8TDW0) | inactive: 0.001
LDAH isoform 2 (UniProt Q9H6V9) | inactive: -0.017
LMAN2L isoform 2 (UniProt Q9H0V9) | inactive: 0.047
LRCH4 (UniProt O75427) | inactive: 0.038
LCP2 (UniProt Q13094) | inactive: -0.013
LAS1L (UniProt Q9Y4W2) | inactive: -0.008
LRWD1 (UniProt Q9UFC0) | inactive: -0.022
LSM14B isoform 2 (UniProt Q9BX40) | inactive: -0.04
LGALS8 isoform 2 (UniProt O00214) | inactive: -0.034

Target | log2 fold change
LIMD1 (UniProt Q9UGP4) | inactive: -0.018
LDHA isoform 3 (UniProt P00338) | inactive: 0.01
LIN7C (UniProt Q9NUP9) | inactive: -0.005
LRRC8D (UniProt Q7L1W4) | inactive: 0.056
LIMA1 isoform 4 (UniProt Q9UHB6) | inactive: 0.005
LRRC57 (UniProt Q8N9N7) | inactive: 0.002
LMAN1 (UniProt P49257) | inactive: -0.005
LMNB1 (UniProt P20700) | inactive: -0.01
LSM2 (UniProt Q9Y333) | inactive: 0.034
LINS1 (UniProt Q8NG48) | inactive: -0.071
LIG1 (UniProt P18858) | inactive: 0.001
LMBRD1 (UniProt Q9NUN5) | inactive: 0.031
LRRCC1 (UniProt Q9C099) | inactive: 0.208
LRCH3 (UniProt Q96II8) | inactive: 0.053
LIG4 (UniProt P49917) | inactive: -0.041
LRRC59 (UniProt Q96AG4) | inactive: -0.012
LSR (UniProt Q86X29) | inactive: 0.018
LIN9 isoform 2 (UniProt Q5TKA1) | inactive: 0.073
LNPK (UniProt Q9C0E8) | inactive: -0.003
